Laboratory results: PubChem BioAssay AID1259287 (Sanger Institute, 2017)
Purpose: 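Follow-up of selected drug and gene pairs in HCT15 cells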 (follow-up of hits). System: human HCT15 colorectal cancer cells. Reagent: single siRNA against human genes. Challenge: BYL719 1 µM, cetuximab 5 µg/ml or trametinib 10 nM, or DMSO vehicle. Detection: 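Survival scaled to control siRNA wells, then a synergy score per drug giving combined effect beyond the expected one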. Direction: synergy score with BYL719 and synergy score with cetuximab and synergy score with trametinib: higher = stronger combined killing than expected. Rule for the call: 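Called active when the synergy score is above 0.10 for one or more of the three drugs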. Meaning of the calls: active = synergy with at least one drug; inactive = no synergy with any drug.
In all, the deposit lists 160 reagents; shown is a part drawn at random. 19 of them (12%) count as active. 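Viability seems capped at 1; calls apply to HCT15 cells only, not to validation across other lines.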 Not all columns of the deposit are shown. The record does not give: the amount of reagent, the time to read-out.

With KCNH8 (potassium voltage-gated channel subfamily H member 8) [SID134236349], what does the deposit list?
synergy score with BYL719: -0.235; synergy score with cetuximab: -0.153; synergy score with trametinib: -0.2; Outcome: inactive

How did the screen score KCNH8 (potassium voltage-gated channel subfamily H member 8) [SID134236350]?
synergy score with BYL719: 0.0405; synergy score with cetuximab: -0.0699; synergy score with trametinib: 0.0107; Outcome: inactive

For KCNH8 (potassium voltage-gated channel subfamily H member 8) [SID134236351], what was measured?
synergy score with BYL719: -0.0429; synergy score with cetuximab: -0.154; synergy score with trametinib: 0.0682; Outcome: inactive

With KCNH8 (potassium voltage-gated channel subfamily H member 8) [SID134236352], what was measured?
synergy score with BYL719: 0.0603; synergy score with cetuximab: -0.0294; synergy score with trametinib: 0.109; Outcome: active

What did the screen give for PIK3CA [SID56475149]?
synergy score with BYL719: -0.117; synergy score with cetuximab: -0.0765; synergy score with trametinib: 0.0827; Outcome: inactive

With PIK3CA [SID56475150], what does the deposit list?
synergy score with BYL719: -0.0138; synergy score with cetuximab: 0.0935; synergy score with trametinib: 0.123; Outcome: active

For PIK3CA [SID135611211], what was measured?
synergy score with BYL719: -0.115; synergy score with cetuximab: -0.0502; synergy score with trametinib: 0.099; Outcome: inactive

How did the screen score PIK3CA [SID135611212]?
synergy score with BYL719: -0.127; synergy score with cetuximab: 0.0719; synergy score with trametinib: 0.0836; Outcome: inactive

Limited to “synergy score with BYL719” (2 entries from above):
KCNH8 (potassium voltage-gated channel subfamily H member 8) [SID134236352] = 0.0603
PIK3CA [SID56475149] = -0.117

The results go on.
For CHD4 (chromodomain helicase DNA binding protein 4) [SID134247681], how do the results read?
synergy score with BYL719: -0.133; synergy score with cetuximab: -0.147; synergy score with trametinib: 0.0406; Outcome: inactive

With CHD4 (chromodomain helicase DNA binding protein 4) [SID134247682], what does the deposit list?
synergy score with BYL719: -0.242; synergy score with cetuximab: -0.0873; synergy score with trametinib: -0.0198; Outcome: inactive

How did the screen score CHD4 (chromodomain helicase DNA binding protein 4) [SID134247683]?
synergy score with BYL719: 0.0339; synergy score with cetuximab: -0.0458; synergy score with trametinib: 0.0248; Outcome: inactive

What did the screen give for CHD4 (chromodomain helicase DNA binding protein 4) [SID134247684]?
synergy score with BYL719: -0.0509; synergy score with cetuximab: -0.118; synergy score with trametinib: -0.127; Outcome: inactive
